Laboratory results as given in publication PMC11449290.
Results are given in words; binding and its absence hold for the method and conditions named. For some assays here: In cells and extracts the contact can be indirect. Some binding calls cover weakened binding; strength is not graded here. For some assays here: Tags and fused reporters may be left off the sequences shown.

T1: T20S proteasome β-subunit with C-terminal 6X-His tag (PsmB-6x-His), from the T20S-αΔN construct (Thermoplasma acidophilum) (UniProt P28061)
T1 sequence: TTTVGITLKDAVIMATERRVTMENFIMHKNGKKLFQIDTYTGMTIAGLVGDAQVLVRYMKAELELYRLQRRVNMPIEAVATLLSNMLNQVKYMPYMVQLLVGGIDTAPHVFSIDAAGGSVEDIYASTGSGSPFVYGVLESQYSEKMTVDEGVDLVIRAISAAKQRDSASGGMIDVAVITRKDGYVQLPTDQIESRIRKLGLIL

B1: T20S proteasome β-subunit with C-terminal 6X-His tag (PsmB-6x-His), from the T20S-αΔN construct (protein, UniProt P28061 9-211)
chain: TTTVGITLKDAVIMATERRVTMENFIMHKNGKKLFQIDTYTGMTIAGLVGDAQVLVRYMKAELELYRLQRRVNMPIEAVATLLSNMLNQVKYMPYMVQLLVGGIDTAPHVFSIDAAGGSVEDIYASTGSGSPFVYGVLESQYSEKMTVDEGVDLVIRAISAAKQRDSASGGMIDVAVITRKDGYVQLPTDQIESRIRKLGLIL

Legend:
[1] = target: T1, T20S proteasome β-subunit with C-terminal 6X-His tag (PsmB-6x-His), from the T20S-αΔN construct (Thermoplasma acidophilum); assay: negative-stain transmission electron microscopy; T20S-αΔN purified from HEK293 cells (6x-His tag antibody pulldown), 1% uranyl acetate; 522 particles aligned and classified
[2] = target: T20S proteasome α-subunit lacking amino acids 2-11 (Δ2-11PsmA), from the T20S-αΔN construct (Thermoplasma acidophilum) (UniProt P25156); assay: as above
[3] = target: T1, T20S proteasome β-subunit with C-terminal 6X-His tag (PsmB-6x-His), from the T20S-αΔN construct (Thermoplasma acidophilum); assay: co-IP; His-tagged β-subunit immunoprecipitated with 6x-His tag mouse monoclonal antibody and protein A/G agarose from extract of transfected HEK293 cells, eluted with 3% ammonia; Western blotting
[4] = target: T1, T20S proteasome β-subunit with C-terminal 6X-His tag (PsmB-6x-His), from the T20S-αΔN construct (Thermoplasma acidophilum); assay: pull-down; His-tagged β-subunit captured with HisPur Ni-NTA resin from extract of transfected HEK293 cells (20mM Tris/HCl pH 7.5, 100mM NaCl, 1.0% Triton X-100), eluted with 300mM imidazole; Western blotting

| Molecule | binding [1] | binding [2] | binding [3] | binding [4] |
| --- | --- | --- | --- | --- |
| T20S proteasome α-subunit lacking amino acids 2-11 (Δ2-11PsmA), from the T20S-αΔN construct (from UniProt P25156 4-233) | binds | binds | binds | binds |
| B1 | binds | – | – | – |
